Measurements published in PubChem BioAssay AID2417 (National Center for Advancing Translational Sciences (NCATS), 2010).
Out of some 140,000 compounds screened, about 4,300 (3.1%) were called active. This list was built around the results that the source calls inconclusive (neither active nor inactive); the mix of calls is not that of the screen.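 Rule for the calls: active = readout at or below -70, meaning at least 70% loss of cells showing the perinucleolar compartment, a nuclear body marking cancer cells; inconclusive = readout between -30 and a set limit; inactive = the rest.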

Test: High Content Assay for Compounds that inhibit the Assembly of the Perinucleolar Compartment;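 note: plate controls were DMSO wells for no effect and camptothecin positive control wells for full effect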
Details: PC3M PTB-GFP, PNC prevalence imaging, 16 h; at 10 µM; stronger effect = lower value
Procedure, shortened: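 Read-out is percentage of cells bearing a perinucleolar compartment, from automated 20x imaging of fixed, Hoechst-stained PC3M PTB-GFP cells. Cells were seeded 4 h, then exposed 16 h to compound (23 nl of library stock) in duplicate plates.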

| Structure (SMILES) | activity change (PNC), negative = inhibition |
| --- | --- |
| CCOC(=O)C(C)Sc1nc2c([nH]c3ccccc32)c(=O)n1C (stereo not given) | active: -119% |
| COc1ccc(Cl)cc1NC(=O)COC(=O)C(CC(C)C)N1C(=O)C2CC=CCC2C1=O (stereo not given) | inconclusive: -75.4% |
| O=C(NNC(=S)Nc1ccc(OC(F)F)cc1)c1cc2c(s1)CCCC2 | inactive: -0.108% |
| N#CCCN(C1CCCCC1)S(=O)(=O)CCOc1ccccc1 | inconclusive: -75.3% |
| CCC1CCc2c([nH]c3ccccc3c2=O)O1 (stereo not given) | inconclusive: -34.3% |
| Cc1c(C(=O)C(=O)N2c3ccc(F)cc3CCC2C)c2ccccc2n1C (stereo not given) | inconclusive: -63.9% |
| COc1cc(S(=O)(=O)N2CCN(c3ccccc3F)CC2)ccc1Cl | inconclusive: -63.7% |
| Cc1cccc2nc(CSc3nc4cc([N+](=O)[O-])ccc4s3)cn12 | inconclusive: -64.5% |
| CCCCC(=O)Nc1ccc(F)c(Cl)c1 | inconclusive: -43.2% |
| CCCN1CN(Cc2ccccc2)CNC1=S | inconclusive: -53% |
| COC(=O)c1ccc(NC(=S)NCCC2=CCCCC2)cc1 | inconclusive: -46.3% |
| CCOCCCn1c(SCC(=O)Nc2ccc(C(N)=O)cc2)nc2ccccc2c1=O | inconclusive: -73% |
| O=C(NCc1ccccc1)c1cccc(Br)n1 | inconclusive: -42.2% |
| O=C1CN2C(=N1)N(Cc1ccccc1)c1ccccc12 | inconclusive: -67.2% |
| C=CCn1c(N)c(C(=O)NCc2ccco2)sc1=S | inconclusive: -52.4% |
| COc1ccc(S(=O)(=O)N(C)CC(=O)NCc2cccnc2)cc1 | inactive: -3.91% |
| Cc1c(/C=N/NC(=O)CNc2ccccc2)c2ccccn2c1C(=O)c1ccc(Cl)cc1 | inconclusive: -58.6% |
| CN(C)c1ccc(C2C=C(c3ccc(Cl)cc3OC(F)F)Nc3ncnn32)cc1 (stereo not given) | inactive: 35.2% |
| CCCn1c(NCc2cccc(OC)c2O)nc2ccccc21 | inconclusive: -45.7% |
| Cc1ccnc(NC(NC(=O)C(C)C)(C(F)(F)F)C(F)(F)F)c1 | inactive: 20.4% |

| Structure (SMILES) | activity change (PNC), negative = inhibition |
| --- | --- |
| Cc1cccc(C)c1NC(=O)CSc1nc(-c2ccco2)cc(C(F)(F)F)n1 | inconclusive: -56.1% |
| COC(=O)c1ccc(SCC(=O)N2CCC(C)CC2)c([N+](=O)[O-])c1 | inactive: 24.2% |
| COc1ccc(OC)c(NC(=O)c2ccc(CN3CCOCC3)cc2)c1 | inconclusive: -41.5% |
| Cc1cc(C)nc(-n2nc(C)cc2NC(=O)CNC2CCCCC2)n1 | inactive: 27.4% |
| COc1ccc(-c2c(C)nn(-c3ccccc3)c2N)cc1OC | inconclusive: -49.9% |
| Cn1nc(C(F)(F)F)c(/C=N/OC(=O)c2ccccc2)c1SCc1ccc(Cl)cc1 | inconclusive: -30.5% |
| O=C(Nc1ccc(Cl)cn1)c1ccc(-c2cc(Cl)ccc2Cl)o1 | inactive: -1.56% |
| CCCCCc1c(C)nc(SCC(=O)O)[nH]c1=O | inconclusive: -53.5% |
| CSCCC1NC(=O)N(CC(=O)Nc2ccc(N3CCCCC3)cc2)C1=O (stereo not given) | inconclusive: -34.7% |
| CCOC(=O)C1CCCN(C(=O)c2ccc(C)cc2O)C1 (stereo not given) | inactive: -21.6% |
| COc1ccc(OC2C(=O)N(Cc3ccc(F)cc3)C2c2ccc(OC)c(OC)c2)cc1 (stereo not given) | inactive: 33.5% |
| c1ccc(Cc2nn3c(COc4ccccc4)nnc3s2)cc1 | inconclusive: -59.6% |
| CC(C)CCNC(=O)CCC(=O)NNc1nc2ccccc2c2nc(-c3ccccc3)nn12 | inconclusive: -50.9% |
| Cc1ccc(S(=O)(=O)N2CCCC(C(=O)NC3=NCCS3)C2)cc1 (stereo not given) | active: -103% |
| CN(C)CCCn1c(-c2ccccc2)nc(=S)c2c1CCCC2 | inactive: 5.42% |
| COc1ccc(-c2nn(-c3ccccc3)cc2C(=O)n2nnc3ccccc32)cc1 | inactive: -21.9% |
| OC(COCc1ccc(Cl)cc1)CN1CCN(CC(O)COCc2ccc(Cl)cc2)CC1 (stereo not given) | inconclusive: -49.6% |
| CCOC(=O)c1ccc(-n2c(C)ccc2C)cc1 | inactive: 45.8% |
| COc1ccccc1-c1cc(C(=O)Nc2cc(C)nn2-c2ccccc2)no1 | active: -129% |
| Cn1nc(-c2ccc(Cl)cc2)c2cc(C(=O)NCc3ccco3)sc21 | inconclusive: -68.9% |

A second format for some results above.
Structure (SMILES)	activity change (PNC), negative = inhibition
Cc1cccc(C)c1NC(=O)CSc1nc(-c2ccco2)cc(C(F)(F)F)n1	inconclusive: -56.1%
COc1ccc(OC)c(NC(=O)c2ccc(CN3CCOCC3)cc2)c1	inconclusive: -41.5%
Cn1nc(C(F)(F)F)c(/C=N/OC(=O)c2ccccc2)c1SCc1ccc(Cl)cc1	inconclusive: -30.5%
OC(COCc1ccc(Cl)cc1)CN1CCN(CC(O)COCc2ccc(Cl)cc2)CC1 (stereo not given)	inconclusive: -49.6%

Further results follow.

| Structure (SMILES) | activity change (PNC), negative = inhibition |
| --- | --- |
| COc1ccc(OCCSc2nnc3c(Cl)cc(Cl)cn23)cc1 | inconclusive: -42.7% |
| CCOC(=O)/C=C/C(=O)N1CCc2ccccc21 | inconclusive: -53.1% |
| O=c1[nH]c(SCc2ccc(Cl)cc2)nc2c1CCC2 | inactive: -8.59% |
| CCOc1cc(NC(=O)C2CC2)c(OCC)cc1NC(=O)c1cccnc1 | inconclusive: -63.7% |
| COCCOC(=O)c1c(C)oc2ccc(OC(=O)c3ccco3)cc12 | inactive: 43.8% |
| CC(C)C(=O)Nc1ccc(C(=O)c2ccccc2)cc1 | inconclusive: -34.1% |
| CN(C)c1nc(Oc2ccc(=O)n(-c3ccccc3)n2)nc(N2CCOCC2)n1 | inconclusive: -56.4% |
| Cc1ccc(CNC(=O)C2CCCN2C(=O)NCc2ccccc2)cc1 (stereo not given) | inconclusive: -45.7% |
| CCOC(=O)N1CCN(C(c2ccc(F)cc2)c2sc3nc(C)nn3c2O)CC1 (stereo not given) | inactive: 24.9% |
| CO/N=C\C(=N\Nc1ccc(OC)cc1)C(=O)c1ccccc1 | inconclusive: -32% |
| N#Cc1cccc(N=Cc2c(O)ccc3ccccc23)c1 | inactive: -8.94% |
| O=C(Nc1ccc(F)cc1)c1ccccc1CC[N+](=O)[O-] | inconclusive: -72% |
| O=c1c2ccccc2nc(N/N=C/c2ccc(O)cc2)n1O | inconclusive: -38.8% |
| O=S1(=O)C=CC(N2CCOCC2)C1 (stereo not given) | inconclusive: -41.2% |
| O=C(Nc1ccccc1)N1CCN(c2ccccn2)CC1 | inconclusive: -41% |
| CCNC(=O)CN(c1ccc(Cl)cc1)S(=O)(=O)c1ccccc1 | inconclusive: -57.9% |
| Cn1c(SCC(=O)c2ccccc2)nnc1-c1cccnc1 | inconclusive: -32.4% |
| c1ccc2c(c1)ncn2CCN1CCCCC1 | inconclusive: -65.5% |
| COCCN1CN=C(Nc2nc3ccccc3s2)NC1 | inactive: 44.9% |
| CCOc1ccc(-n2nnnc2SCC(=O)N2CCOCC2)cc1 | inconclusive: -47.2% |
